Laboratory results from PMC7862700.
Only a part is listed here, and it is no random draw. At the low end of the ranking the order means little.

Assays:
Experiment in all cases: DAPPL (digital affinity profiling via proximity ligation, sequencing)
Settings in all cases: 10 mM Tris-HCl pH 7.5, 50 mM NaCl, 1 mM DTT, 4% glycerol, room temperature, 30 min; GST-TFs on glutathione beads, 16-mer random dsDNA library, 0.1% …; high values mean tight binding; double strand, one strand shown; scale: fold enrichment (6-mer frequency, TF over GST control)
[1] = target: T1, SPIC (UniProt Q8N5J4)
T1 sequence: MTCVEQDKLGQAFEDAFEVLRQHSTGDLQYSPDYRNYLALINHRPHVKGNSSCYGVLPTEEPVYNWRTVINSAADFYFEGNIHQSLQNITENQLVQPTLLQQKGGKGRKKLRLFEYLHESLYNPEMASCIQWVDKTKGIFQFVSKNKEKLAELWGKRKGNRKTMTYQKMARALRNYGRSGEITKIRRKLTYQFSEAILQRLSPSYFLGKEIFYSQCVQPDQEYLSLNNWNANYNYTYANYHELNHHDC

[2] = target: T2, ETS2 (UniProt P15036)
T2 sequence: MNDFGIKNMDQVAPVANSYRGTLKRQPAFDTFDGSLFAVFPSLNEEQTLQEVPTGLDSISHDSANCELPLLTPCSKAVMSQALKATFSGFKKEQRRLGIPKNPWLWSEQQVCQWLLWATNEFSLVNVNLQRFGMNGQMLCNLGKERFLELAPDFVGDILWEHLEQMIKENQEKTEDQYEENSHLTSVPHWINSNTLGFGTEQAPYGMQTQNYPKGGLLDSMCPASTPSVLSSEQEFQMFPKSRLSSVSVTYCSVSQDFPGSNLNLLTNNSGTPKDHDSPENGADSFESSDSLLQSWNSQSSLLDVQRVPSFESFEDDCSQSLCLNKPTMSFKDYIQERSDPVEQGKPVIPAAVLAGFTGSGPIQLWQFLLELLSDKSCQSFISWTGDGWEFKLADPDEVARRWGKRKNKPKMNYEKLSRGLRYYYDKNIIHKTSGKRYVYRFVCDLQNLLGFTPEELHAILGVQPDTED

[3] = target: T3, ELK3 (UniProt P41970)
T3 sequence: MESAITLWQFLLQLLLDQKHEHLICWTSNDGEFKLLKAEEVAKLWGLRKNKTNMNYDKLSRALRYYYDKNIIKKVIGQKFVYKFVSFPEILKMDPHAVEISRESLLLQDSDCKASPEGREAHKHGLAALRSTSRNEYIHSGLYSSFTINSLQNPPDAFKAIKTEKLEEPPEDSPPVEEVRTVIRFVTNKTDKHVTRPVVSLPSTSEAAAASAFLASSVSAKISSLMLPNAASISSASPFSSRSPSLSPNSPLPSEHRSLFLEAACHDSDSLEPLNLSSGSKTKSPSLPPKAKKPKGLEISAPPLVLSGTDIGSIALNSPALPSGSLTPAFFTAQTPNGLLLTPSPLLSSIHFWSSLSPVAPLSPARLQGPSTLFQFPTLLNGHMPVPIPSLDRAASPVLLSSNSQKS

[4] = target: T4, ETV3 (UniProt P41162-2)
T4 sequence: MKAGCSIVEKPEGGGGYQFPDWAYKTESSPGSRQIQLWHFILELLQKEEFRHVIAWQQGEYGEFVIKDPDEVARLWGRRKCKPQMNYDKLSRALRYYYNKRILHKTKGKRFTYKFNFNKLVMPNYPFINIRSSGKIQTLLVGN

| Sequence | binding signal [1] | binding signal [2] | binding signal [3] | binding signal [4] |
| --- | --- | --- | --- | --- |
| TTGTCA | 0.982 | 1.11 |  |  |
| CCGCCA | 1.37 | 1.22 |  |  |
| CAAACG | 0.988 | 0.997 |  |  |
| TCGTTT | 1.15 | 1.28 |  |  |
| AAACAA | 1.33 | 1.32 |  |  |
| CAGGAA | 1.65 | 1.75 |  |  |
| TTCGGT | 1.34 | 1.16 |  |  |
| AGCGCC | 0.971 | 1.06 |  |  |
| AATGTT | 1.68 | 1.56 |  |  |
| CCCCGT | 1.05 | 0.994 |  |  |
| CGCTTA | 1.22 | 1.25 |  |  |
| CCTTGC | 1.45 | 1.22 |  |  |
| CATGAC | 0.986 | 1.2 |  |  |
| TCCCGG | 2.35 | 2.34 |  |  |
| GCACCT | 1 | 0.999 |  |  |
| TTATGC | 1.55 | 1.28 |  |  |
| ATATTT | 1.45 | 1.58 |  |  |
| TCTACC | 1.53 | 1.6 |  |  |
| CGTAAC | 1.27 | 1.15 |  |  |
| ATTAAC | 1.3 | 1.27 |  |  |
| GGAAGT | 3.41 | 3.2 |  |  |
| TCTCAG | 1.16 | 1.37 |  |  |

| Sequence | binding signal [1] | binding signal [2] | binding signal [3] | binding signal [4] |
| --- | --- | --- | --- | --- |
| ACTGTT | 0.964 | 1.13 |  |  |
| GAAACG | 1.19 | 1.17 |  |  |
| CTGGCT | 1.13 | 1.19 |  |  |
| GCACAA | 1.09 | 1.12 |  |  |
| TAACGT | 0.928 | 0.993 |  |  |
| CAACTA | 1.22 | 1.3 |  |  |
| ACCGCC | 1.16 | 1.24 |  |  |
| GCTTGG | 1.03 | 1.14 |  |  |
| CTTTCG | 0.966 | 1.32 |  |  |
| CCGGCT | 1.46 | 1.71 |  |  |
| CCAACA | 1.01 | 1.03 |  |  |
| ATATTG | 1.41 | 1.36 |  |  |
| GCCCCA | 1.05 | 0.995 |  |  |
| TGCCCC | 1.41 | 1.12 | 1.18 |  |
| TGGTCA | 1.07 | 1.13 | 0.941 |  |
| GGTCAC | 0.982 | 0.976 | 0.998 | 0.941 |
| AGGTAA | 0.772 | 0.97 | 0.932 | 0.958 |
| GGCAAT | 0.917 | 0.912 | 0.823 | 0.972 |
| ACTGTA | 1.24 | 0.986 | 1.04 |  |
| GCGAAT | 0.963 | 0.968 | 0.981 | 1.07 |
| GTTTCT | 1.28 | 1.28 | 1.14 |  |
| ACTTGA | 1 | 0.913 | 0.83 |  |

| Sequence | binding signal [1] | binding signal [2] | binding signal [3] | binding signal [4] |
| --- | --- | --- | --- | --- |
| TTAAGA | 1.12 | 0.934 | 1.02 |  |
| AGAACA | 0.967 | 0.988 | 0.973 |  |
| AGATGT | 0.96 | 0.995 | 0.958 | 0.945 |
| AAAGCA | 1.01 | 1.05 | 1.05 | 1.07 |
| GGGAAA | 0.988 | 0.994 | 0.996 |  |
| GTTACC | 1.03 | 1.09 | 1.08 |  |
| CACGCA | 0.953 | 1.03 | 1.14 |  |
| AGATAA | 0.953 | 1.04 | 0.978 | 0.976 |
| CAGCCT | 0.965 | 0.965 | 0.954 | 0.908 |
| AACGGT | 0.994 | 0.937 | 0.915 | 0.929 |
| TGAAGC | 0.808 | 0.996 | 0.944 |  |
| CGTTGT | 0.998 | 0.925 | 0.865 |  |
| GCGATC | 0.977 | 0.915 | 0.989 |  |
| CTATCA | 0.924 | 1.04 | 1.11 | 0.969 |
| TTGAAG | 0.894 | 0.942 | 0.906 |  |
| CTGGTG | 0.827 | 0.93 | 1.15 |  |
| CCCCAC | 1.33 | 1.22 | 1.34 |  |
| CATGCA | 0.961 | 1.06 | 1.02 |  |
| CACCCA | 0.915 | 0.951 | 0.963 | 0.996 |
| TATAGC | 1.31 | 1.18 | 1.1 |  |
| GTTGCC | 0.846 | 0.961 | 1 | 0.94 |
| CCGGCG | 0.864 | 0.977 | 1.02 |  |

Three entries drawn at random from the list so far, as already listed:

| Sequence | binding signal [1] | binding signal [2] | binding signal [3] | binding signal [4] |
| --- | --- | --- | --- | --- |
| CAGCCT | 0.965 | 0.965 | 0.954 | 0.908 |
| AACGGT | 0.994 | 0.937 | 0.915 | 0.929 |
| TTAAGA | 1.12 | 0.934 | 1.02 |  |

(next part)

| Sequence | binding signal [1] | binding signal [2] | binding signal [3] | binding signal [4] |
| --- | --- | --- | --- | --- |
| GACCAA | 0.849 | 0.996 | 0.932 | 0.968 |
| CGTAGC | 0.935 | 0.993 | 0.972 |  |
| AGAATA | 0.986 | 1 | 0.926 |  |
| GCAATC | 0.992 | 1.04 | 0.915 | 1.06 |
| GCAACA | 0.877 | 0.979 | 0.963 | 0.973 |
| ACGGTT | 1.04 | 0.976 | 0.955 | 0.966 |
| TGTAAC | 0.96 | 1.32 | 1.2 |  |
| CCCTGT | 1.2 | 1.06 | 0.996 | 0.993 |
| GCCACA | 0.983 | 0.918 | 0.932 | 0.931 |
| ACTTCG | 1.55 |  |  | 1.42 |
| CAACTT | 1.77 |  | 1.59 | 1.55 |
| TTGGTC | 1.12 |  | 1.11 | 1.05 |
| TGCTTA | 1.32 |  |  | 1.18 |
| AATATA | 1.29 |  |  | 1.35 |
| TCAGCA | 1.1 |  |  | 0.982 |
| ACACTG | 1.3 |  | 1.04 | 1.01 |
| ACTCCA | 1.18 |  |  | 1.17 |
| GCCTTA | 1.07 |  |  | 1.08 |
| CACATA | 1.07 |  |  | 1.09 |
| AATGGA | 0.976 |  | 0.978 | 0.974 |
